Reference: the supplement of paper PMC12889115
The list shows a part of the results. These are raw signals, not scaled to a control.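 Primary screen: polymyxin B was added at a level permeabilizing Salmonella outer membranes while sparing inner membranes. DMSO wells, both with and without polymyxin B, established maximum growth. Plate-to-plate variation meant each plate was ranked on its own, and the lowest-OD600 compounds were selected as hits.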

Tested on: Salmonella enterica serovar Typhimurium SL1344
Test: bacterial growth OD600 after 18 h with compound and polymyxin B; higher = more bacterial growth (less inhibition)
Conditions: 50 µM, Mueller-Hinton broth

| SMILES | bacterial growth OD600 (polymyxin B 1 µg/mL) | bacterial growth OD600 (polymyxin B 0.75 µg/mL) |
| --- | --- | --- |
| CCCCN(C)C(=O)c1nc2ccccn2c1CN1CCN(c2ccccc2F)CC1 | 0.815 | – |
| Cc1cccnc1CNC(=O)c1coc(COc2cccc(C(F)(F)F)c2)n1 | 0.013 | – |
| CC(C)c1c(C(=O)NCC2(N3CCOCC3)CCCCCC2)cnn1-c1nccc(-c2ccco2)n1 | – | 0.698 |
| COc1ccc(CN2CCN(Cc3ccccc3F)C(CCO)C2)cc1O (stereo not given) | 0.863 | – |
| O=C(CC1CCCC1)N1CCC(CO)(Cc2cccc(C(F)(F)F)c2)CC1 | 0.007 | – |
| CCOC(=O)C1(CCCc2ccccc2)CCN(C(=O)C2CCCC2)CC1 | 0.012 | – |
| COc1ccc(C(=O)Nc2ccnn2C2CCN(C(=O)C=C(C)C)CC2)cc1 | 0.967 | – |
| Cc1cc(CN2CC[C@@H](N3CCN(c4ccccn4)CC3)[C@H](O)C2)oc1C | 0.894 | – |
| COc1cc(CN2Cc3ccccc3OC(C)C2)cc(OC)c1OC (stereo not given) | – | 0.895 |
| Cc1ccc(S(=O)(=O)NC2CC(=O)N(Cc3cccc(F)c3)C2)c(C)c1 (stereo not given) | 0.959 | – |
| Cc1ccc(-n2cc(CN(C)C3CCOC3)c(-c3ccc(F)cc3)n2)cc1 (stereo not given) | 0.813 | – |
| CCS(=O)(=O)c1ncc(CN2CCCC(COC)C2)n1CCCc1ccccc1 (stereo not given) | 0.729 | – |
| CCOC(=O)N1CCN(C(=O)c2ccc(N3CCC(NCc4c(C)nn(CC)c4C)CC3)cc2)CC1 | – | 0.765 |
| c1nc(CN(CCN2CCCCC2)CC2CCCN(C3CCCC3)C2)c[nH]1 (stereo not given) | 0.967 | – |
| COc1ccccc1NC(=O)Nc1ccnn1C1CCN(C(=O)NC(C)C)CC1 | 1.01 | – |
| Cc1nc(N2CCC(C(=O)NCC3(O)CCCCC3)CC2)nc2cc(S(C)(=O)=O)ccc12 | – | 0.849 |
| C=C(C)CNC(=O)CC(c1ccccc1)c1ccc2c(c1)OCO2 (stereo not given) | 0.17 | – |
| CCCc1cc(CNC(=O)c2ccc(N3CCCC(CO)C3)nc2)on1 (stereo not given) | – | 0.785 |
| CSCCNC(=O)C1CC(Cc2ccc(F)cc2)=NO1 (stereo not given) | – | 0.812 |
| CC(C)c1cc(C(=O)N2CCc3onc(-c4ccccc4F)c3C2)on1 | – | 0.616 |
| C=CCOc1cccc(C(=O)N2CCc3c(cnc(C)c3CNC(=O)/C=C/c3cccs3)C2)c1 | – | 0.681 |
| COCC1CCN(C(=O)CC2(c3ccccc3Cl)CC(=O)N(C3CCCC3)C2=O)CC1 (stereo not given) | – | 0.53 |
| O=C(CCC1CCN(C(=O)C2=CCCCC2)CC1)N1CCN(c2ccccc2)CC1 | 0.89 | – |
| CCOC(=O)C1(Cc2cccc(OC)c2)CCN(Cc2cccn2-c2ccccn2)CC1 | 0.78 | – |
| Cc1ccc2c(c1)CN(CC(=O)NCc1cn3c(C)cccc3n1)CC(c1ccsc1)O2 (stereo not given) | – | -0.003 |
| COCCn1cnc2cc(NC(=O)C3CCCCC3)cc(C(=O)N3CCCC(c4ccccc4)C3)c21 (stereo not given) | – | 0.796 |
| COC(=O)c1cccc(C(=O)N2CCc3c(cnc(C)c3CNC(=O)c3ccccc3SC)C2)c1 | – | 0.781 |
| Cc1nc(N2CCC(C(=O)NCc3ccccc3Cl)CC2)nc2cc(S(C)(=O)=O)ccc12 | – | 0.783 |
| COc1ccc(F)c(CC2(CCC(=O)N(C)CCC3CCCCO3)CCC(=O)N2)c1 (stereo not given) | – | 0.845 |
| O=C(CCN1CCCCO1)N1CCCC(CCc2ccccc2F)C1 (stereo not given) | – | 0.836 |

2 compounds drawn at random from those above:

| SMILES | bacterial growth OD600 (polymyxin B 1 µg/mL) | bacterial growth OD600 (polymyxin B 0.75 µg/mL) |
| --- | --- | --- |
| CCOC(=O)C1(Cc2cccc(OC)c2)CCN(Cc2cccn2-c2ccccn2)CC1 | 0.78 | – |
| COCCn1cnc2cc(NC(=O)C3CCCCC3)cc(C(=O)N3CCCC(c4ccccc4)C3)c21 (stereo not given) | – | 0.796 |
